# Experimental data as given in patent publication US12618070B2, “Increasing Atoh1 life to drive sensorineural hair cell differentiation” (Massachusetts Eye and Ear Infirmary, priority 2014, dated 2026).
# Tested on: FLAG-HA-Atoh1 293T cells
# Assay: Cycloheximide chase, half-life of Atoh1 by Western blotting and densitometry
# Assay type: cell-based
# Procedure: FIGS. 1A-B. Atoh1 is a short-lived protein. (A) FLAG-HA-Atoh1 293T cells were treated with cycloheximide (100 ug/ml) and harvested at the indicated times. Lysates were processed for Western blotting with FLAG antibody (Atoh1) or β-actin antibody (loading control). Labels indicate the time of chase. (B) Protein half-lives based on densitometry. The ratio of Atoh1 to β-actin was plotted after normalizing to the initial ratio set to 100. Error bars indicate SEM.
# HEK cells were transfected with either FLAG-Atoh1 (wild-type), or indicated mutant FLAG-Atoh1 plasmids (1 μg/ml) using Lipofectamine 2000 (3 μl per 1 μg of cDNA, Invitrogen). Forty-eight hours after transfection, 100 μg/ml cycloheximide (Sigma) was added to block protein synthesis. Cells were harvested at 0, 30, 60, 120, and 240 minutes. Equal amounts of protein from each treatment were taken for Western blotting. Protein bands were quantified by densitometry. The half-lives of indicated proteins were calculated using GraphPad Prism 6 software and a one-phase exponential-decay model.
# To determine the half-life of Atoh1, we used cycloheximide to prevent new protein synthesis and followed the time course of disappearance of previously synthesized Atoh1 by Western blotting during a chase period. We transfected 293T cells with FLAG-HA-Atoh1 and treated with cycloheximide at 48 hours after transfection.
molecule,measurement,setting,value
"Atoh1: wild-type Atoh1 protein, FLAG- or FLAG-HA-tagged, expressed in HEK/293T cells (protein, left off: large carriers, wild-type Atoh1 protein, FLAG- or FLAG-HA-tagged, expressed in HEK/293T cells) MSRLLHAEEWAEVKELGDHHRQPQPHHLPQPPPPPQPPATLQAREHPVYPPELSLLDSTDPRAWLAPTLQGICTARAAQYLLHSPELGASEAAAPRDEVDGRGELVRRSSGGASSSKSPGPVKVREQLCKLKGGVVVDELGCSRQRAPSSKQVNGVQKQRRLAANARERRRMHGLNHAFDQLRNVIPSFNNDKKLSKYETLQMAQIYINALSELLQTPSGGEQPPPPPASCKSDHHHLRTAASYEGGAGNATAAGAQQASGGSQRPTPPGSCRTRFSAPASAGGYSVQLDALHFSTFEDSALTAMMAQKNLSPSLPGSILQPVQEENSKTSPRSHRSDGEFSPHSHYSDSDEAS",time by which pre-existing Atoh1 was completely degraded,after inhibition of new protein synthesis with cycloheximide,≤ 2 h
same,half-life of Atoh1,"cycloheximide 100 ug/ml, densitometry in three experiments",35.31 min
